# According to PubChem BioAssay (Tox21):
# “And” between values parts separate entries of the source, which are not always exact repeats. Identical values can stand only once. This list was built around the results that the source calls inconclusive (neither active nor inactive); the mix of calls is not that of the screen. Where the call is inconclusive, the potency comes from a doubtful curve fit. The source made the active and inactive calls. Unless noted, the call rests on the fitted dose curve.
# Tested on: not listed separately
# Test: cAMP Responsive Elements (CRE) small molecule antagonists, cell-based qHTS assay (AID 1963591; active means well fitted inhibition curve with a large enough effect in the signal ratio in the repeat runs, not every such curve was filed as active; inconclusive means weak or mixed curves, or effect the other way; the % refers to the signal ratio)
# Conditions: CRE-bla HEK293T, beta-lactamase FRET ratio; activity change, negative = inhibition: at 92.4 µM (top of the series) unless noted
# Summary of the method: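 Beta-lactamase reporter read by FRET substrate (LiveBLAzer B/G) after 2 h at room temperature. CRE-bla HEK293T cells had received compound plus 0.25 uM (final) NKH477 for 3 h at 37 °C.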
# On the % scale 0 is the no-effect control and ±100 the full control effect; potency means the concentration at half of the fitted maximal effect.
Structure (SMILES),Potency,"activity change, negative = inhibition"
Cc1nnc2n1-c1sc(CCC(=O)N3CCOCC3)cc1C(c1ccccc1Cl)=NC2,inconclusive: 11.9 µM [fluorescent],–
CC1(c2ccc(Oc3ccccc3)cc2)OC(=O)N(Nc2ccccc2)C1=O (stereo not drawn),active: 61.5 µM,–
O=C(NC(=O)c1c(F)cccc1F)Nc1ccc(Oc2ccc(C(F)(F)F)cc2Cl)cc1F,"inconclusive: 21.7 µM [fluorescent, partial curve, poor fit]",–
O=C1NCN(c2ccccc2)C12CCN(CC1COc3ccccc3O1)CC2 (stereo not drawn),–,inconclusive: -32.5% [at 42.4 µM]
CCCCCCCCCCCCCCCCCCn1cc[n+](C)c1,inconclusive: 19.2 µM [partial curve],–
CCC(C)(NC(=O)c1cc(Cl)c(C)c(Cl)c1)C(=O)CCl (stereo not drawn),"inconclusive: 61.5 µM [rising, single point]",–
N#Cc1cc(Br)c(O)c(Br)c1,"inconclusive: 68.5 µM [fluorescent, single point]",–
CNC,inactive,–
Fc1ccc(C(OCCN2CCN(CCCc3ccccc3)CC2)c2ccc(F)cc2)cc1,inconclusive: 29.8 µM,–
C[C@@H](Oc1ccc(Cl)cc1Cl)C(=O)O,–,inconclusive: 1.7%
CCCCCCCCCCOC(=O)c1ccccc1C(=O)OCCCCCCCCCC,inactive,–

# Target: Beta-2 adrenergic receptor (Homo sapiens) (UniProt P07550)
# Test: Adrenergic beta2 receptor (ADRB2) small molecule antagonists, cell-based qHTS assay (AID 1963592); further: nearly all actives have a fitted effect of over 50% in size
# Conditions: CHO-ADRB2 cells, isoproterenol-stimulated cAMP HTRF ratio, 0.5 h; activity change, negative = inhibition: at 92.4 µM (top of the series) unless noted
# Summary of the method: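 Cells (CHO, stable ADRB2 overexpression) incubated 18-20hr at 37C; compounds added from DMSO; agonist mix (1nM isoproterenol, 100uM IBMX, 25uM Ro-20-1724) added; 0.5hr RT; d2-cAMP and anti-cAMP-cryptate added; 1hr RT; 665/615 nm read.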
Structure (SMILES),Potency,"activity change, negative = inhibition"
Cc1nnc2n1-c1sc(CCC(=O)N3CCOCC3)cc1C(c1ccccc1Cl)=NC2,active: 29.8 µM,–
O=C1NCN(c2ccccc2)C12CCN(CC1COc3ccccc3O1)CC2 (stereo not drawn),"inconclusive: 4.22 µM [inhibitor, full curve]",–
BrCC(Br)C1CCC(Br)C(Br)C1 (stereo not drawn),–,inconclusive: 30.1%
Fc1ccc(C(OCCN2CCN(CCCc3ccccc3)CC2)c2ccc(F)cc2)cc1,active: 29.8 µM,–
CC(C)(C#N)N=NC(C)(C)C#N,–,inconclusive: 10%
CN1CCc2cc(Cl)c(O)cc2[C@H]2c3ccccc3CC[C@@H]21,inconclusive: 33.5 µM [inhibitor],–
C[C@@H](Oc1ccc(Cl)cc1Cl)C(=O)O,inactive,–

# Target: Beta-2 adrenergic receptor (Homo sapiens) (UniProt P07550)
# Test: Adrenergic beta2 receptor (ADRB2) small molecule agonists, cell-based qHTS assay (AID 1963593);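 on activation: CHO cells stably overexpressing human ADRB2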
# Conditions: CHO-ADRB2 cells, cAMP HTRF, 30 min; activation: at 92.4 µM (top of the series) unless noted
# Summary of the method: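 CHO cells stably over-expressing ADRB2 were plated overnight at 37C, then dosed with compounds plus a stimulation mix containing 100uM IBMX and 25uM Ro-20-1724 for 0.5hr at room temperature. cAMP was measured by HTRF competition, 1hr.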
Structure (SMILES),Potency,activation
Cc1nnc2n1-c1sc(CCC(=O)N3CCOCC3)cc1C(c1ccccc1Cl)=NC2,"inconclusive: 23.7 µM [inhibitor, partial curve]",–
CSc1nc(NC(C)C)nc(NC(C)C)n1,–,inconclusive: -31.7%
CN(C)CCO,–,inconclusive: -1.56%
CC1(c2ccc(Oc3ccccc3)cc2)OC(=O)N(Nc2ccccc2)C1=O (stereo not drawn),inactive,–
COCc1cnc(C2=NC(C)(C(C)C)C(=O)N2)c(C(=O)O)c1 (stereo not drawn),inactive,–
CC(=O)CN(CC(C)=O)N=O,inactive,–
COC(=O)c1ccccc1C(=O)OC,"inconclusive: 69 µM [inhibitor, partial curve, poor fit] and inconclusive: 9.69 µM [inhibitor, single point]",–
O=NN(CCO)CCO,–,inconclusive: 0.858%
CN1CCC(N(Cc2ccccc2)c2ccccc2)CC1,–,inconclusive: -30.5% [at 42.5 µM]
CC(C)(C)OO,"inconclusive: 1.37 µM [inhibitor, single point]",–
CC(=O)C=C(C)C,–,inconclusive: 1.25%
O=C(NC(=O)c1c(F)cccc1F)Nc1ccc(Oc2ccc(C(F)(F)F)cc2Cl)cc1F,inactive,–
NCc1cccnc1,–,inconclusive: -35.5%
CC(NC(C)(C)C)C(=O)c1cccc(Cl)c1 (stereo not drawn),"inconclusive: 0.728 µM [inhibitor, single point]",inconclusive: -6.73% [at 42.5 µM]
Clc1cccc(N2CCNCC2)c1,inconclusive: 11.9 µM [inhibitor],–
O=C1NCN(c2ccccc2)C12CCN(CC1COc3ccccc3O1)CC2 (stereo not drawn),"inconclusive: 13.3 µM [inhibitor, partial curve, poor fit]",–
O=P1(NCCCl)OCCCN1CCCl (stereo not drawn),inactive,–

Structure (SMILES),Potency,activation
CCCCCCCCCCCCCCCCCCn1cc[n+](C)c1,inactive,–
CCC(C)(NC(=O)c1cc(Cl)c(C)c(Cl)c1)C(=O)CCl (stereo not drawn),"inconclusive: 61.5 µM [inhibitor, single point]",–
CCCC[n+]1ccccc1,"inconclusive: 1.37 µM [inhibitor, single point]",inconclusive: 2.23% and inconclusive: -17%
N#Cc1cc(Br)c(O)c(Br)c1,–,inconclusive: -125%
CCC(=O)C(CCN(C)C)(c1ccccc1)c1ccccc1,inactive,–
BrCC(Br)C1CCC(Br)C(Br)C1 (stereo not drawn),inactive,–
COC(=O)c1c(C(F)F)nc(C(F)(F)F)c(C2=NCCS2)c1CC(C)C,inactive,–
Nc1cc(Cl)cc(Cl)c1,–,inconclusive: 6.9% and inconclusive: 5.42%
CNC,"inconclusive: 76.9 µM [inhibitor, single point] and inactive",–
Fc1ccc(C(OCCN2CCN(CCCc3ccccc3)CC2)c2ccc(F)cc2)cc1,"inconclusive: 29.8 µM [inhibitor, partial curve]",–
Clc1ccccc1-c1nnc(-c2ccccc2Cl)nn1,–,inconclusive: 3.63%
CC(C)(C#N)N=NC(C)(C)C#N,–,inconclusive: -22.5%
CN1CCc2cc(Cl)c(O)cc2[C@H]2c3ccccc3CC[C@@H]21,–,inconclusive: -30.7% [at 42.5 µM]
C[C@@H](Oc1ccc(Cl)cc1Cl)C(=O)O,–,inconclusive: -44.3%
CCC1(c2ccccc2)C(=O)N=C(O)NC1=O (stereo not drawn),inactive,–
CCCCOC(C)=O,inactive,–
